Two molecules from PMC7956376 can be followed below.

Sequences of proteins named here, by UniProt entry; tags and fusion partners are left off. A change or cut given only in a name is not applied to a line headed by its entry.
UniProt Q93X17: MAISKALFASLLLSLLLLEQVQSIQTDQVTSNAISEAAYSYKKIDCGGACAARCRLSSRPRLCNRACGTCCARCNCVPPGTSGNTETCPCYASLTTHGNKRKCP

This test has as its target Snakin-2 (StSN2), as present in transgenic potato lines (potato (Solanum tuberosum, cultivar Chuanyu 10)) (UniProt Q93X17). The experiment in a line: affinity purification with mass spectrometry; CoIP-MS: rabbit anti-StSN2 antibody (raised against the peptide …) used to co-immunoprecipitate SN2-interacting proteins from RNAi line 7 and OE line 27; in-gel tryptic digestion, LC-MS/MS.

No constants are given. Whether binding was seen depends on the method and setting. In cells and extracts the contact can be indirect. Here binding means that the protein was enriched with, or labelled near, the bait; the list need not be complete.

B1: Class III peroxidase Prx10, in potato extract (enzyme, UniProt M1CCJ9 1-359)
chain: MASTTLYTLASSLVLILSIFVSIHFQVTKAQGTQPIVKGLSWTFYDSICPNAESIIRRRLQNVFRQDIGQAAGLLRLHFHDCFVQGCDGSVLLDGSTSGPSEKDAPPNLTLRQQAFRIIEDLRRRVHRDCGRVVSCADITAIAARDSVFFSGGPDYDLPLGRRDGLTFATLNETLANLPPPSFNTSLILASLATKNFTPTDVVALSGGHTIGISHCTSFTERLYPNQDSSMDKTFANNLKITCPTTNSTNTTVLDIRSPNKFDNKYYVDLMNRQGLFTSDQDLYTDRRTRGIVTSFAINESLFFQEFVNSMIKMGQLNVLTGTQGQIRANCSVRNSNNYNLILPSSLGDQEKQGTWSEI
Regarding B1, the binding entry is reported as “binds”.

B2: Class III peroxidase Prx9, in potato extract (enzyme, UniProt M1A251 1-334)
chain: MALGATHLSLAFCLMALIVLVKADFDGKKEPINNILEQNSEMLTQDFCIFAAVGSVVAEAIARERRMGASLIRLFFHDCFVDGCDAGILLDDIPGRFQGEKTSPPNNNSVRGYQVIDQAKQRIKTMCPGAAVSCADILALAARDSVAMLGGIPYPVSLGRKDARTANFTGALIQLPAPFDDLNVQLKKFSDKGMSAREMVALVGSHTVGFARCVTLCDDRNINPAMKSTLKCGCPVSNNNTNLVPLDLMTPDFFDKFYYEDLIRNQGLLFSDQVLMGSTATANVVRTYNSNPALFLREFNDAMIKMGNLPPSRGVQLEIRNVCSKVNGNSIADM
Consider B2, for which the binding entry is reported as “binds”.
